In the supplement of paper PMC6078165:
Values are relative to the signal before dosing, not to a vehicle control; the signal also falls without drug.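 Labels refer to human fibroblasts, largely primary: uterine (C12385, HUF), lung (H6013), bone (Hs27A), adrenal (HADF), skin (WS1), plus mammary HMF and breast cancer-associated Hs343T. Cancer lines are basal-like or mesenchymal-like triple-negative breast cancer. The paper counts as hits responses shifting over 3x the replicate standard deviation. The tissue of the other fibroblasts is not given here.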

System: MDAMB468
Assay: relative JC-1 red fluorescence (viability) vs pre-drug, coculture with fibroblast (fraction); higher = more viable cancer cells
Experimental: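 JC-1 labelled TNBC cells cocultured 1:1 (1,500 cells each) with CellTrace Violet stained primary or stromal fibroblasts in 384-well plates in FluoroBrite medium, treated with one of 42 anticancer drugs at 0.1, 1, 10 or 100 uM. JC-1 red fluorescence (mitochondrial integrity in cancer cells only) was read by plate reader every 8 h for 72 h. Values are normalised to each well's pre-drug value. The stock of one drug was tenfold lower, so its dose labels may be too high.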

O=C(CCCCCCC(=O)Nc1ccccc1)NO [Vorinostat]
relative JC-1 red fluorescence
Settings | 8 h | 16 h | 24 h | 32 h | 40 h | 48 h | 56 h | 64 h | 72 h
0.1 µM, coculture fibroblast: C12385 | 0.85196 | 0.756 | 0.708 | 0.641 | 0.585 | 0.565 | 0.528 | 0.503 | 0.486
0.1 µM, coculture fibroblast: H6013 | 0.83975 | 0.8215 | 0.7667 | 0.747 | 0.7 | 0.697 | 0.662 | 0.657 | 0.615
0.1 µM, coculture fibroblast: H6019 | 0.803 | 0.7572 | 0.713 | 0.6581 | 0.6209 | 0.602 | 0.5596 | 0.5239 | 0.504
0.1 µM, coculture fibroblast: H6076 | 0.9072 | 0.946 | 0.861 | 0.816 | 0.739 | 0.725 | 0.682 | 0.662 | 0.684
0.1 µM, coculture fibroblast: H6231 | 0.8254 | 0.9857 | 0.827 | 0.7959 | 0.7473 | 0.717 | 0.65 | 0.619 | 0.6022
0.1 µM, coculture fibroblast: HADF | 0.879 | 0.808 | 0.754 | 0.731 | 0.683 | 0.677 | 0.636 | 0.625 | 0.586
0.1 µM, coculture fibroblast: HCFa | 0.851 | 0.833 | 0.786 | 0.758 | 0.694 | 0.69 | 0.635 | 0.606 | 0.57
0.1 µM, coculture fibroblast: HCPF | 0.87 | 0.931 | 0.841 | 0.8 | 0.747 | 0.7076 | 0.656 | 0.64 | 0.617
0.1 µM, coculture fibroblast: HHSteC | 0.861 | 0.8326 | 0.77719 | 0.723 | 0.664 | 0.6575 | 0.595 | 0.569 | 0.523
0.1 µM, coculture fibroblast: HMF | 0.83 | 0.972 | 0.875 | 0.8262 | 0.7699 | 0.739 | 0.681 | 0.665 | 0.643
0.1 µM, coculture fibroblast: HPFa | 0.9277 | 0.8577 | 0.809 | 0.758 | 0.717 | 0.715 | 0.641 | 0.603 | 0.525
0.1 µM, coculture fibroblast: HUF | 0.881 | 0.78 | 0.721 | 0.656 | 0.609 | 0.581 | 0.533 | 0.507 | 0.4814
0.1 µM, coculture fibroblast: Hs5 | 0.906 | 0.849 | 0.925 | 0.891 | 0.83 | 0.801 | 0.758 | 0.722 | 0.732
0.1 µM, coculture fibroblast: Hs27A | 0.855 | 0.805 | 0.7453 | 0.741 | 0.674 | 0.6747 | 0.632 | 0.608 | 0.573
0.1 µM, coculture fibroblast: Hs343T | 0.8796 | 0.969 | 0.868 | 0.824 | 0.743 | 0.694 | 0.633 | 0.61 | 0.576
0.1 µM, coculture fibroblast: WS1 | 0.8092 | 0.722 | 0.663 | 0.599 | 0.548 | 0.517 | 0.487 | 0.467 | 0.457
1 µM, coculture fibroblast: C12385 | 0.874 | 0.796 | 0.688 | 0.588 | 0.529 | 0.504 | 0.467 | 0.436 | 0.427
1 µM, coculture fibroblast: H6013 | 0.8744 | 0.816 | 0.749 | 0.738 | 0.714 | 0.724 | 0.706 | 0.703 | 0.666
1 µM, coculture fibroblast: H6019 | 0.843 | 0.768 | 0.731 | 0.67 | 0.644 | 0.639 | 0.605 | 0.591 | 0.582
1 µM, coculture fibroblast: H6076 | 0.97 | 0.9731 | 0.8 | 0.777 | 0.688 | 0.667 | 0.63 | 0.61 | 0.664
1 µM, coculture fibroblast: H6231 | 0.807 | 0.883 | 0.763 | 0.718 | 0.6442 | 0.624 | 0.5827 | 0.561 | 0.553
1 µM, coculture fibroblast: HADF | 0.8703 | 0.812 | 0.735 | 0.729 | 0.68 | 0.683 | 0.661 | 0.652 | 0.611
1 µM, coculture fibroblast: HCFa | 0.847 | 0.7537 | 0.707 | 0.691 | 0.63 | 0.627 | 0.584 | 0.5592 | 0.5091
1 µM, coculture fibroblast: HCPF | 0.8537 | 0.9558 | 0.79 | 0.769 | 0.714 | 0.686 | 0.629 | 0.62 | 0.607
1 µM, coculture fibroblast: HHSteC | 0.894 | 0.816 | 0.778 | 0.752 | 0.728 | 0.729 | 0.672 | 0.656 | 0.609
1 µM, coculture fibroblast: HMF | 0.8353 | 0.95932 | 0.778 | 0.726 | 0.641 | 0.613 | 0.551 | 0.531 | 0.517
1 µM, coculture fibroblast: HPFa | 0.9154 | 0.873 | 0.802 | 0.759 | 0.732 | 0.746 | 0.682 | 0.665 | 0.6
1 µM, coculture fibroblast: HUF | 0.8994 | 0.843 | 0.724 | 0.658 | 0.603 | 0.588 | 0.551 | 0.535 | –
1 µM, coculture fibroblast: Hs5 | 0.798 | 0.945 | 0.878 | 0.833 | 0.757 | 0.72 | 0.688 | 0.661 | 0.686
1 µM, coculture fibroblast: Hs27A | 0.822 | 0.696 | 0.692 | 0.694 | 0.65702 | 0.6627 | 0.633 | 0.623 | 0.583
1 µM, coculture fibroblast: Hs343T | 0.878 | 0.9325 | 0.772 | 0.737 | 0.656 | 0.628 | 0.581 | 0.565 | 0.555
1 µM, coculture fibroblast: WS1 | 0.867 | 0.758 | 0.678 | 0.605 | 0.564 | 0.534 | 0.518 | 0.5 | 0.498
10 µM, coculture fibroblast: C12385 | 0.856 | 0.674 | 0.543 | 0.438 | 0.382 | 0.372 | 0.337 | 0.309 | 0.295
10 µM, coculture fibroblast: H6013 | 0.8619 | 0.81 | 0.74 | 0.672 | 0.649 | 0.648 | 0.626 | 0.618 | 0.558
10 µM, coculture fibroblast: H6019 | 0.792 | 0.6877 | 0.612 | 0.561 | 0.55 | 0.572 | 0.558 | 0.569 | 0.58
10 µM, coculture fibroblast: H6076 | 0.923 | 0.913 | 0.77 | 0.732 | 0.649 | 0.639 | 0.612 | 0.599 | 0.661
10 µM, coculture fibroblast: H6231 | 0.8501 | 0.926 | 0.701 | 0.667 | 0.58 | 0.563 | 0.518 | 0.489 | 0.502
10 µM, coculture fibroblast: HADF | 0.9118 | 0.783 | 0.66792 | 0.593 | 0.535 | 0.525 | 0.4744 | 0.45795 | 0.384
10 µM, coculture fibroblast: HCFa | 0.858 | 0.775 | 0.6916 | 0.6229 | 0.5634 | 0.55 | 0.505 | 0.49 | 0.447
10 µM, coculture fibroblast: HCPF | 0.877 | 0.868 | 0.7447 | 0.715 | 0.605 | 0.562 | 0.509 | 0.495 | 0.488
10 µM, coculture fibroblast: HHSteC | 0.8733 | 0.7735 | 0.673 | 0.58383 | 0.525 | 0.523 | 0.467 | 0.4523 | 0.406
10 µM, coculture fibroblast: HMF | 0.8474 | 0.883 | 0.732 | 0.678 | 0.588 | 0.544 | 0.473 | 0.456 | 0.457
10 µM, coculture fibroblast: HPFa | 0.91 | 0.793 | 0.693 | 0.587 | 0.541 | 0.537 | 0.486 | 0.475 | 0.424
10 µM, coculture fibroblast: HUF | 0.928 | 0.778 | 0.689 | 0.609 | 0.562 | 0.56 | 0.526 | 0.527 | 0.532
10 µM, coculture fibroblast: Hs5 | 0.98 | 0.871 | 0.747 | 0.6975 | 0.6095 | 0.5846 | 0.5607 | 0.539 | 0.579
10 µM, coculture fibroblast: Hs27A | 0.88 | 0.7939 | 0.7443 | 0.7153 | 0.6777 | 0.6853 | 0.6666 | 0.668 | 0.597
10 µM, coculture fibroblast: Hs343T | 0.9103 | 0.919 | 0.753 | 0.7 | 0.596 | 0.564 | 0.512 | 0.497 | 0.493
10 µM, coculture fibroblast: WS1 | 0.838 | 0.663 | 0.548 | 0.46 | 0.403 | 0.379 | 0.347 | 0.324 | 0.315
100 µM, coculture fibroblast: C12385 | 0.9298 | 0.788 | 0.606 | 0.48 | 0.409 | 0.38 | 0.336 | 0.311 | 0.301
100 µM, coculture fibroblast: H6013 | 0.987 | 0.858 | 0.721 | 0.603 | 0.548 | 0.546 | 0.514 | 0.5 | 0.438
100 µM, coculture fibroblast: H6019 | 0.897 | 0.686 | 0.537 | 0.433 | 0.397 | 0.406 | 0.392 | 0.408 | 0.412
100 µM, coculture fibroblast: H6076 | 0.871 | 0.954 | 0.811 | 0.771 | 0.681 | 0.663 | 0.652 | 0.631 | 0.708
100 µM, coculture fibroblast: H6231 | 0.877 | 0.918 | 0.743 | 0.704 | 0.6 | 0.575 | 0.536 | 0.517 | 0.524
100 µM, coculture fibroblast: HADF | 0.743 | 0.8858 | 0.746 | 0.648 | 0.578 | 0.556 | 0.51 | 0.482 | 0.406
100 µM, coculture fibroblast: HCFa | 0.945 | 0.8134 | 0.671 | 0.556 | 0.4722 | 0.4491 | 0.408 | 0.389 | 0.347
100 µM, coculture fibroblast: HCPF | 0.891 | 0.9548 | 0.862 | 0.835 | 0.751 | 0.723 | 0.673 | 0.661 | 0.644
100 µM, coculture fibroblast: HHSteC | 0.885 | 0.8537 | 0.731 | 0.639 | 0.592 | 0.5945 | 0.532 | 0.5133 | 0.4569
100 µM, coculture fibroblast: HMF | 0.87 | 0.961 | 0.8928 | 0.8617 | 0.771 | 0.7562 | 0.7104 | 0.6837 | 0.6694
100 µM, coculture fibroblast: HPFa | 0.904 | 0.963 | 0.803 | 0.67 | 0.617 | 0.599 | 0.536 | 0.522 | 0.454
100 µM, coculture fibroblast: HUF | 0.951 | 0.743 | 0.59 | 0.512 | 0.4547 | 0.435 | 0.393 | 0.389 | 0.384
100 µM, coculture fibroblast: Hs5 | 0.828 | 0.956 | 0.677 | 0.573 | 0.475 | 0.441 | 0.408 | 0.384 | 0.417
100 µM, coculture fibroblast: Hs27A | 0.9586 | 0.835 | 0.743 | 0.652 | 0.579 | 0.55 | 0.513 | 0.479 | 0.401
100 µM, coculture fibroblast: Hs343T | 0.933 | 0.898 | 0.754 | 0.686 | 0.563 | 0.53 | 0.484 | 0.462 | 0.45
100 µM, coculture fibroblast: WS1 | 0.9334 | 0.7388 | 0.581 | 0.433 | 0.351 | 0.32 | 0.286 | 0.269 | 0.266
